Experimental data reported in paper PMC6016943.
These are yes or no findings as the source states them, for the method shown. Binding can be weak; no strength is given.

Target: T1, SAUR19 (SMALL AUXIN UP RNA 19), yeast two-hybrid bait from pBTM116-SAUR19 (Arabidopsis thaliana) (UniProt Q9FJG1)
T1 sequence: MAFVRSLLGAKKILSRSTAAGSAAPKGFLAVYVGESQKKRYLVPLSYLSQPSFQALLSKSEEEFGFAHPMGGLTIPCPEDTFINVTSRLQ
Experiment: two-hybrid; lexA-based yeast two-hybrid; bait pBTM116-SAUR19, prey pACT2-PP2C.D, strain L40ccU3; selection media, room temperature, 3 to 6 days

With “PP2C.D1, yeast two-hybrid prey from pACT2-PP2C.D1 (Arabidopsis thaliana) (enzyme)” the binding was “binds”.
